Protein sequences, listed by entry. Tags and fused reporters are not part of them.
UniProt P98170: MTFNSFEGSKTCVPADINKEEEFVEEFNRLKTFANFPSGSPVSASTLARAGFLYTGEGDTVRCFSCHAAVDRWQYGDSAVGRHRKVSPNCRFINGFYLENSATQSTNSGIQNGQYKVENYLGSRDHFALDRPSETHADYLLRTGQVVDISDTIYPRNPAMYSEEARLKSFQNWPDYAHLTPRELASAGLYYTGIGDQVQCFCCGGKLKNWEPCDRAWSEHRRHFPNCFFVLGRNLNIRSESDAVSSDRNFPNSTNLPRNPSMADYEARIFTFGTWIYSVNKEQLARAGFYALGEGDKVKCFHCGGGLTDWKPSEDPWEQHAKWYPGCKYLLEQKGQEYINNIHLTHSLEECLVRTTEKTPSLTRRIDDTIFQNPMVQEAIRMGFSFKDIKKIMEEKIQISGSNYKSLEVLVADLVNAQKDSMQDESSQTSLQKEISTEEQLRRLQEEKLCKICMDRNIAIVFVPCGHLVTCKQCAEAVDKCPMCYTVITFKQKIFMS
UniProt Q9NR09: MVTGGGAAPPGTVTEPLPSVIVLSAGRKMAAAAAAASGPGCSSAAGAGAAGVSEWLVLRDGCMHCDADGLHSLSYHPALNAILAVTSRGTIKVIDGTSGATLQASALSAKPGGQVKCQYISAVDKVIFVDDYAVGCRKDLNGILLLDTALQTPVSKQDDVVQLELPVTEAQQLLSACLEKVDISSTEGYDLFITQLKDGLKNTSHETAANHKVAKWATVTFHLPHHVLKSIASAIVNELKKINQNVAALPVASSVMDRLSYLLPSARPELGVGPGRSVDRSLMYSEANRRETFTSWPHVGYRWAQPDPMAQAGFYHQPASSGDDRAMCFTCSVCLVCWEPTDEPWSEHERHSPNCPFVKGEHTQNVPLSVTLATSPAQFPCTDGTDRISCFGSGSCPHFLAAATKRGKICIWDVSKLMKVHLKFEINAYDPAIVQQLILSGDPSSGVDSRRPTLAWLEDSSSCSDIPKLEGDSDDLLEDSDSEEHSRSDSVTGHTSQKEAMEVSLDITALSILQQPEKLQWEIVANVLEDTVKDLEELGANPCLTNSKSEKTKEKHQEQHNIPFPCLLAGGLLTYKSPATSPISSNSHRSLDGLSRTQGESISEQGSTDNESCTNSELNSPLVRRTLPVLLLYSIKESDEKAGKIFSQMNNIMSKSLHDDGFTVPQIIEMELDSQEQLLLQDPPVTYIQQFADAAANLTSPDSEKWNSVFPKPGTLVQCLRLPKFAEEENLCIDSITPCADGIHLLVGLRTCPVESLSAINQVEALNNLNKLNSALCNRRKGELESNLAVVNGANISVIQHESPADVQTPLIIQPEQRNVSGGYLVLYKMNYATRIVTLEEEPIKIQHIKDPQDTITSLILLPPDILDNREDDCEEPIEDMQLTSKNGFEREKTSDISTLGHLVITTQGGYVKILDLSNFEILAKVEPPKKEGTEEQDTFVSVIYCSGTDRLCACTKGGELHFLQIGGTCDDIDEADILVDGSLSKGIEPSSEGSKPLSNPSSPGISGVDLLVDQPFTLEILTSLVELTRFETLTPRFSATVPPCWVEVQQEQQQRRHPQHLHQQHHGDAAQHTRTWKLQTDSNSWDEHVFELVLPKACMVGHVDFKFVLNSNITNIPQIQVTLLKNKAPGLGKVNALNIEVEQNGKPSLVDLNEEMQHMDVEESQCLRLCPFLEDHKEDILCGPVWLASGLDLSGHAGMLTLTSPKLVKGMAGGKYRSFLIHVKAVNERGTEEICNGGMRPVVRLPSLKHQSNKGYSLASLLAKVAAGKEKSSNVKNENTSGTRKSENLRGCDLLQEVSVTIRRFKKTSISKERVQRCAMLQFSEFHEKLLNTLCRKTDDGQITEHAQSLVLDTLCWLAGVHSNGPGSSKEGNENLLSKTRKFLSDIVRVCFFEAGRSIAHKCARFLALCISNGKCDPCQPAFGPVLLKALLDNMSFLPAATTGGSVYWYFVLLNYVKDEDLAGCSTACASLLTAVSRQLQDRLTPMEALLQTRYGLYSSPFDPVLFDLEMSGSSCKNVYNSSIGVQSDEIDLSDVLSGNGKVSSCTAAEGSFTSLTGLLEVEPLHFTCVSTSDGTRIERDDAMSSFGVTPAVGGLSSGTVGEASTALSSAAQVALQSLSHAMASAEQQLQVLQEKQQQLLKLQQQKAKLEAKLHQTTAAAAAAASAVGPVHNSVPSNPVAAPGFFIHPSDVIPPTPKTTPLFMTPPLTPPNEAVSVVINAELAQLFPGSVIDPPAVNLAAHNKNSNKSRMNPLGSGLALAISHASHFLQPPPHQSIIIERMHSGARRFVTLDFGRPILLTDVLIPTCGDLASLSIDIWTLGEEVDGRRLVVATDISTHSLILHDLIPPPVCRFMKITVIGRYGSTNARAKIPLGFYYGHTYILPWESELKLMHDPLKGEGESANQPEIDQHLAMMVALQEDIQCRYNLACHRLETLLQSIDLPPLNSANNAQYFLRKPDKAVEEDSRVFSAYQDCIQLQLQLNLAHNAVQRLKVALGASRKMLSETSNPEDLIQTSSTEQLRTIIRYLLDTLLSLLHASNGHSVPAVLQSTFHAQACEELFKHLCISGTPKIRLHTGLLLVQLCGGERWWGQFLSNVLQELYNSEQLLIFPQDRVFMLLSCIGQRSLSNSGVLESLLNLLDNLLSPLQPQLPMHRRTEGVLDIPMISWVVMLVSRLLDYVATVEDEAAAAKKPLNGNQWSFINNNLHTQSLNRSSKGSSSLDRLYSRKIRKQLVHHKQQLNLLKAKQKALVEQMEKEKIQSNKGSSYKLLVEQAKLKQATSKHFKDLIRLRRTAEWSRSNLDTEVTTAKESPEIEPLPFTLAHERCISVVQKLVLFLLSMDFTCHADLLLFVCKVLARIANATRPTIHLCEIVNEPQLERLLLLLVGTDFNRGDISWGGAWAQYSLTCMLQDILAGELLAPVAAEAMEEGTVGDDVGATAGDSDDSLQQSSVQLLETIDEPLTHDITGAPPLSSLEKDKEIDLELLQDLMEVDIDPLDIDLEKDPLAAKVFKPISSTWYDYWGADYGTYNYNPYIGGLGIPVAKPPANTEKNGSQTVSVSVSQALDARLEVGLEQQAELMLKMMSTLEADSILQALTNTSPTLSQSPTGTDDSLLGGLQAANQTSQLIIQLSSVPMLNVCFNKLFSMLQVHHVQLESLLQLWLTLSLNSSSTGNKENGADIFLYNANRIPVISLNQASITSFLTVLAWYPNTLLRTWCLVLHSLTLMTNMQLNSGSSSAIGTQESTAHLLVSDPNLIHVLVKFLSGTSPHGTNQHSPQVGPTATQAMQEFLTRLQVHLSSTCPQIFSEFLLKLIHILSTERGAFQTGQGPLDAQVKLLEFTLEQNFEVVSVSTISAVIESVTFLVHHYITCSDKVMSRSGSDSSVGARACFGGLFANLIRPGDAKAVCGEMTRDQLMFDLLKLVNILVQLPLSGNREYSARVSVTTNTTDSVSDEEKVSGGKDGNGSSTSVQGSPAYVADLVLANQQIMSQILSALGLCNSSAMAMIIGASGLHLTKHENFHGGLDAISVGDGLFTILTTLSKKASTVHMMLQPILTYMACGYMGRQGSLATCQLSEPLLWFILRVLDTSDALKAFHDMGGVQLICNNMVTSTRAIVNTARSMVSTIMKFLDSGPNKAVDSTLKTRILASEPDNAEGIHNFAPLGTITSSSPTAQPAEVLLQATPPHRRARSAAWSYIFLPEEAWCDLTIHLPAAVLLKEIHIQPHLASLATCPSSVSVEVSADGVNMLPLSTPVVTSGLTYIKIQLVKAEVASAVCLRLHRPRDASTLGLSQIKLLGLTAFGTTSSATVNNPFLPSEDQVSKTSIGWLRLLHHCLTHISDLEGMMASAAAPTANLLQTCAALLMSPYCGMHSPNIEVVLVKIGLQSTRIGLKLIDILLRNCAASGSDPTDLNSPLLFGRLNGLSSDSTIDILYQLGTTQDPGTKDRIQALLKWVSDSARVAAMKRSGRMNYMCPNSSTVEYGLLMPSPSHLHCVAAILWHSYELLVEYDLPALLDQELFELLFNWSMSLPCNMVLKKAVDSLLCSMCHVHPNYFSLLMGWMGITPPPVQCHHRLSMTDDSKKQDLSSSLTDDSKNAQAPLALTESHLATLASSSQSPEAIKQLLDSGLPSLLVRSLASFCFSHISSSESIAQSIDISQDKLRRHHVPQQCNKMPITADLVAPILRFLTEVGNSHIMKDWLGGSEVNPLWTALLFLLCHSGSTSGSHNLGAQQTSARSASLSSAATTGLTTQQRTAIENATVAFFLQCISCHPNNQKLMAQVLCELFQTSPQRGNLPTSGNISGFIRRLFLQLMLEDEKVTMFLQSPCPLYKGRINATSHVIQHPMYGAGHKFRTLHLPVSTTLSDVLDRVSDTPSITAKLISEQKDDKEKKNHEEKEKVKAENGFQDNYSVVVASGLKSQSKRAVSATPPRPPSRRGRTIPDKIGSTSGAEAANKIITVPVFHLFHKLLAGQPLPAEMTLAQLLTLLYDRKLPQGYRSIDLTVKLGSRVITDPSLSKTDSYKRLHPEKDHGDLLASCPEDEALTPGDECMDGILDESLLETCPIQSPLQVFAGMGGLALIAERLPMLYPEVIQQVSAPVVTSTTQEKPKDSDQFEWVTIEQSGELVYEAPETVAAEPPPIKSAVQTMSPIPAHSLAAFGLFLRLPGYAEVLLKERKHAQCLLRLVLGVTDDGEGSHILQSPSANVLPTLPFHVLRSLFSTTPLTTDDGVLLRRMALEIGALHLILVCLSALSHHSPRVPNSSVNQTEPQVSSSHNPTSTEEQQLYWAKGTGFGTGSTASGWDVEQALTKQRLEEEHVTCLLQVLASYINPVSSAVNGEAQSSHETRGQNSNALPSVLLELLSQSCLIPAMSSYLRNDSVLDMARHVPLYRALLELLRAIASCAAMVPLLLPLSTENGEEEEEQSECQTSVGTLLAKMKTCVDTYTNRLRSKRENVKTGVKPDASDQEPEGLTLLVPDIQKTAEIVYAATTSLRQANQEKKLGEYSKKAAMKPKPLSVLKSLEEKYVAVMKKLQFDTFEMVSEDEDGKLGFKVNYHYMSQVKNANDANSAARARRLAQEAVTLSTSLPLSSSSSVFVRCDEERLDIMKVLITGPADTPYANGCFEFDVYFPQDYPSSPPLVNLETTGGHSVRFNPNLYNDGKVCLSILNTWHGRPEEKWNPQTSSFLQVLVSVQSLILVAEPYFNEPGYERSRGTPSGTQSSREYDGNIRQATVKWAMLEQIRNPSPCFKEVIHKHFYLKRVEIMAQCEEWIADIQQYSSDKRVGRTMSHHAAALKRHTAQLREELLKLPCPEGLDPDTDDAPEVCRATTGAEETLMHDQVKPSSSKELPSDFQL
UniProt Q13489: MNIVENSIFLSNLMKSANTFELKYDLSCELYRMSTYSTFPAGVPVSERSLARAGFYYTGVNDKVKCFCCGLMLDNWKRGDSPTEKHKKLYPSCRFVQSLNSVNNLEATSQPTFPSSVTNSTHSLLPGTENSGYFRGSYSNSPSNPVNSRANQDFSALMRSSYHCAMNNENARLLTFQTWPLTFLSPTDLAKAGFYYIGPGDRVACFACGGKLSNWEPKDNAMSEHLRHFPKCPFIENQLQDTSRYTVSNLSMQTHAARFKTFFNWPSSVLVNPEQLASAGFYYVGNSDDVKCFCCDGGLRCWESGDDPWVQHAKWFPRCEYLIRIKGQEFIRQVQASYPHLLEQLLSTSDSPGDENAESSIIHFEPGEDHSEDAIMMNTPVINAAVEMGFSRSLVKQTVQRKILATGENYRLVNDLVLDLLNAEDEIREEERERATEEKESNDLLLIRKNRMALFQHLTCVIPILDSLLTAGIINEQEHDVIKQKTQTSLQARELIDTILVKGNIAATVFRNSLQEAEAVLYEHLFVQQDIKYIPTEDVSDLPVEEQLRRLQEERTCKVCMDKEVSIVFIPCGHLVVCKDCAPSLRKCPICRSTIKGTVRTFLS

According to publication PMC12152192:

Key:
Assay in all cases: affinity purification with mass spectrometry; biotinylated peptides (10 µg per 20 µl slurry) on streptavidin beads, incubated with 1 mg HeLa lysate (2 mg/ml) in 150 mM KCl, 75 mM HEPES pH 7.5, 1.5 mM EGTA, 1.5 mM MgCl2, 10% glycerol, 1 mM DTT, 0.1% NP-40; label-free MS, pairwise comparison of peptides, triplicates; only the target purified
[1] = target: T1, NH2-…-KK-Biotin, peptide of the DPP8/9-processed N-terminus of human AK2 with the first residue of the IBM, serine, mutated to valine (human)
T1 sequence (peptide, free N-terminus; biotin at the C-terminal KK): VVPAAEPEYPKK

[2] = target: T2, NH2-…-KK-Biotin, peptide of the N-terminus of mouse AK2 as it would exist after DPP8/9 cleavage (mouse)
T2 sequence (peptide, free N-terminus; biotin at the C-terminal KK): NVLASEPEIPKK

[3] = target: T3, NH2-…-KK-Biotin, peptide of the N-terminus of human AK2 without MAP processing (human)
T3 sequence (peptide, free N-terminus; biotin at the C-terminal KK): MAPSVPAAEPKK

[4] = target: T4, NH2-…-KK-Biotin, peptide derived from the N-terminus of STXBP2 after MAP and DPP8/9 processing
T4 sequence (peptide, free N-terminus; biotin at the C-terminal KK): SGLKAVVGEKKK

[5] = target: T5, NH2-…-KK-Biotin, peptide of the unprocessed N-terminus of EIF2A (human)
T5 sequence (peptide, free N-terminus; biotin at the C-terminal KK): MAPSTPLLTVKK

[6] = target: T6, NH2-…-KK-Biotin, peptide of the partially processed (MAP-processed) N-terminus of EIF2A (human)
T6 sequence (peptide, free N-terminus; biotin at the C-terminal KK): APSTPLLTVRKK

[7] = target: T7, NH2-…-KK-Biotin, peptide of the N-terminus of human AK2 without DPP8/9 cleavage (human)
T7 sequence (peptide, free N-terminus; biotin at the C-terminal KK): APSVPAAEPEKK

Substance | binding [1] | binding [2] | binding [3] | binding [4] | binding [5] | binding [6] | binding [7]
XIAP (from UniProt P98170 1-497) | no binding | no binding | no binding | no binding | no binding | no binding | –
BIRC6 (from UniProt Q9NR09 1-4857) | no binding | no binding | no binding | no binding | no binding | no binding | no binding
UBR5 (from UniProt O95071 1-2799) | – | binds | – | – | – | – | –
BIRC3 (from UniProt Q13489 1-604) | no binding | no binding | no binding | no binding | no binding | no binding | no binding

These are yes or no findings as the source states them, for the method shown. In cells and extracts the contact can be indirect. Here binding means that the protein was enriched with, or labelled near, the bait; the list need not be complete. A no says only that the protein was not detected with the bait.
